We go through 2 molecules from publication doi:10.1101/2020.01.02.893016 (bioRxiv, 2020).

Changes are numbered by the printed parent chain. In names and notes the source's numbering stands. Like-named read-outs stand apart in the source and are kept apart here. These are yes or no findings as the source states them, for the method shown. Some binding calls cover weakened binding; strength is not graded here.

Assay [1] concerns the target T1, ROOTY (RTY) protein, wild type, C-S lyase (Arabidopsis thaliana) (UniProt Q9SIV0).
T1 sequence: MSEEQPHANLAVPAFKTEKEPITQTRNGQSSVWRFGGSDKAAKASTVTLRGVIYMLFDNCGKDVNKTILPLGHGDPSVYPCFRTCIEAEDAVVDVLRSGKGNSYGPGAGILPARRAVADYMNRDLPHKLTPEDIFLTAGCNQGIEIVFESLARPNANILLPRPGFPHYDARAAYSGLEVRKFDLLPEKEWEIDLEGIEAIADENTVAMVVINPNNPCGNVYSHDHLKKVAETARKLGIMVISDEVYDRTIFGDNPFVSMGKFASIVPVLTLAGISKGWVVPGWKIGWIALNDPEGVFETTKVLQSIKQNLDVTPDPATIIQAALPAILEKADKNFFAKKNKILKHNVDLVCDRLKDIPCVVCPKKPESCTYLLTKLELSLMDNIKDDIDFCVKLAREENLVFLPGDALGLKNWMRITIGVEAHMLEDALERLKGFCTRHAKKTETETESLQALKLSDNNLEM
Kind of assay: two-hybrid.

Assay [2] deals with T1, ROOTY (RTY) protein, wild type, C-S lyase (Arabidopsis thaliana). The assay is described as follows: two-hybrid. The source holds these as a separate data set.

B1: ROOTY (RTY) protein, wild type, C-S lyase (enzyme, UniProt Q9SIV0 1-462)
chain: T1 sequence
In the case of B1, the binding entry in assay [1] and in assay [2] was “binds” throughout.

B2: ROOTY (RTY) protein, D315N mutant (TG8B allele) (enzyme, Arabidopsis thaliana, UniProt Q9SIV0 1-462, looked up)
chain: T1 sequence with D315N
As for B2, the binding entry in assay [1] is listed as “binds”.
